No constants are given. Whether binding was seen depends on the method and setting. Binding seen in cells or lysates may run through a third protein. Some results given as binding are weak or reduced against the parent protein; the word gives no strength. For some assays here: Sequences can lack the tags named with a protein.
What was measured:
[1] = molecular target: Myc-tagged AGO2 (Argonaute2), wild type (UniProt Q9UKV8); assay: co-IP; two tagged proteins co-transfected into 293T cells; lysis in RIPA buffer (50 mM Tris-HCl pH7.4, 150 mM NaCl, 1% NP-40); IP with anti-Myc or anti-Flag antibody and protein A/G-agarose at 4 °C overnight, Western blotting
[2] = molecular target: endogenous AGO2 (human (endogenous in 293T)) (UniProt Q9UKV8); assay: co-IP; endogenous proteins of 293T lysate; IP with anti-AGO2 or anti-HDAC7 antibody, normal IgG as negative control, Western blotting

By UniProt entry, the sequences of proteins in these tests, tags left out.
UniProt Q9UKV8: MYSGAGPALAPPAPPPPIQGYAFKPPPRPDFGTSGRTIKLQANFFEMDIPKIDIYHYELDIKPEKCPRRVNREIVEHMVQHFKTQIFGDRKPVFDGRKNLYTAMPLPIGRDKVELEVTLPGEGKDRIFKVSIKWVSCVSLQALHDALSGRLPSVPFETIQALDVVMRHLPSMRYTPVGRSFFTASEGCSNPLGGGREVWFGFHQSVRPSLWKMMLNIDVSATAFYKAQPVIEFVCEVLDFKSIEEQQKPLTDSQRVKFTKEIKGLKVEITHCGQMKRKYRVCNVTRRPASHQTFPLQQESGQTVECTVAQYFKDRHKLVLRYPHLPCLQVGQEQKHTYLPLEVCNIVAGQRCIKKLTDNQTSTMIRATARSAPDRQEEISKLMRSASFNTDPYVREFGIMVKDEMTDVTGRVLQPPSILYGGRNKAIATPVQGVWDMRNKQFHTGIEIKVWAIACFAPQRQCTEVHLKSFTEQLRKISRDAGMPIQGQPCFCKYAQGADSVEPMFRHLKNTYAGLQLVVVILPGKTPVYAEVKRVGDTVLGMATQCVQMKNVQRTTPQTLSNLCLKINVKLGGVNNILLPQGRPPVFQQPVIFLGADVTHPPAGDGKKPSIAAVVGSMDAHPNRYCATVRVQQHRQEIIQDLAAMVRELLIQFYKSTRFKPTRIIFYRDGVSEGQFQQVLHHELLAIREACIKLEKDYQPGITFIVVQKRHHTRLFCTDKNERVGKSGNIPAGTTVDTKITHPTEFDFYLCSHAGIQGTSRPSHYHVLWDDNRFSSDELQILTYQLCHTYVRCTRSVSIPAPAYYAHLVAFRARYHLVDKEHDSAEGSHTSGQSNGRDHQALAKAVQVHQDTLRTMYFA

B1: Flag-tagged HDAC7 (enzyme, UniProt Q8WUI4 1-952)
chain: MDLRVGQRPPVEPPPEPTLLALQRPQRLHHHLFLAGLQQQRSVEPMRLSMDTPMPELQVGPQEQELRQLLHKDKSKRSAVASSVVKQKLAEVILKKQQAALERTVHPNSPGIPYRTLEPLETEGATRSMLSSFLPPVPSLPSDPPEHFPLRKTVSEPNLKLRYKPKKSLERRKNPLLRKESAPPSLRRRPAETLGDSSPSSSSTPASGCSSPNDSEHGPNPILGSEALLGQRLRLQETSVAPFALPTVSLLPAITLGLPAPARADSDRRTHPTLGPRGPILGSPHTPLFLPHGLEPEAGGTLPSRLQPILLLDPSGSHAPLLTVPGLGPLPFHFAQSLMTTERLSGSGLHWPLSRTRSEPLPPSATAPPPPGPMQPRLEQLKTHVQVIKRSAKPSEKPRLRQIPSAEDLETDGGGPGQVVDDGLEHRELGHGQPEARGPAPLQQHPQVLLWEQQRLAGRLPRGSTGDTVLLPLAQGGHRPLSRAQSSPAAPASLSAPEPASQARVLSSSETPARTLPFTTGLIYDSVMLKHQCSCGDNSRHPEHAGRIQSIWSRLQERGLRSQCECLRGRKASLEELQSVHSERHVLLYGTNPLSRLKLDNGKLAGLLAQRMFVMLPCGGVGVDTDTIWNELHSSNAARWAAGSVTDLAFKVASRELKNGFAVVRPPGHHADHSTAMGFCFFNSVAIACRQLQQQSKASKILIVDWDVHHGNGTQQTFYQDPSVLYISLHRHDDGNFFPGSGAVDEVGAGSGEGFNVNVAWAGGLDPPMGDPEYLAAFRIVVMPIAREFSPDLVLVSAGFDAAEGHPAPLGGYHVSAKCFGYMTQQLMNLAGGAVVLALEGGHDLTAICDASEACVAALLGNRVDPLSEEGWKQKPNLNAIRSLEAVIRVHSKYWGCMQRLASCPDSWVPRVPGADKEEVEAVTALASLSVGILAEDRPSEQLVEEEEPMNL
binding [1]: binds

B2: endogenous HDAC7 (enzyme, UniProt Q8WUI4 1-952)
chain: B1 chain
binding [2]: binds

From PMC6372475
